According to PubChem BioAssay AID2685 (National Center for Advancing Translational Sciences (NCATS), 2010):
This is one part of the list. Further columns of the screen follow, without active or inactive calls. The list favours compounds with an active or inconclusive main result. Words in brackets tell the shape of the fitted curve; partial curves, single points and poor fits give uncertain potencies.

Assay: qHTS Assay for Lipid Storage Modulators in Drosophila S3 Cells;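 as to cell number change: cells counted by Cell Tracker Red CMTPX staining in the red channel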
Details: BODIPY lipid droplet fluorescence, 18-24 h; for cell number change: measured here: cell count max response, cells fed with added oleic acid
In short: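 Drosophila S3 cells got compounds at several concentrations plus oleic acid (400 uM solution). Laser-scanning cytometry with 488 nm excitation read lipid droplets at 500-530 nm and cells at 575-640 nm. Percent activity was relative to 20 uM Triacsin C.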

[1] = measured here: lipid fluorescence (Fed channel) AC50, cells fed with added oleic acid
[2] = measured here: cell number channel AC50, cells fed with added oleic acid

SMILES	cell number change [%]	AC50 [1]	AC50 [2]
O=C(O)Cc1ccc(-n2cccc2)cc1	2.12		
Cn1c(=O)oc2cc(S(=O)(=O)N3CCCc4ccccc43)ccc21	0.786		
Cc1ccc(N(C)S(=O)(=O)c2cccc(C(=O)NCC(c3cccs3)N3CCOCC3)c2)cc1 (stereo unspecified)	28.2		
c1ccc2c(Cn3nnc4ccccc43)cccc2c1	-1.15		
O=C(CSCc1c(F)cccc1F)Nc1ccccc1	3.67	6.51 µM [rising, single point]	
CCN(CC)S(=O)(=O)c1ccc(/C=C/C(=O)Nc2ccc(F)c(F)c2F)cc1	-32.4	0.00517 µM [falling, full curve, poor fit]	9.2 µM [falling, single point]
CS(=O)(=O)N1CCN(c2ccccc2NC(=O)c2ccc3ccccc3c2)CC1	-25.2	23.1 µM [falling, single point]	
CC(=O)Cc1nsc(NC(=O)c2ccco2)n1	-4.77	32.6 µM [falling, single point]	
CCCN1CCC(NC(=O)Nc2ccc(Br)cc2)CC1	-3.51	29.1 µM [rising, single point]	
O=c1c2ccc(Cl)cc2[nH]c(=S)n1Cc1cccnc1	33.5		
C=C1CCC[C@]2(C)C[C@H]3OC(=O)C(CNC(C)CCCC(C)C)[C@H]3CC12 (stereo partly specified)	-53.5	16.4 µM [falling, partial curve]	10.3 µM [falling, partial curve]
Cc1ccc(C2Nc3cccc4cccc(c34)N2)s1	22.6	1.84 µM [rising, partial curve, poor fit]	
COc1cc(NC(C)=O)c2ncccc2c1[N+](=O)[O-]	23.2	8.2 µM [rising, partial curve]	
O=C(CC1C(=O)NCCN1C(=O)Nc1ccccc1)Nc1ccc(F)cc1 (stereo unspecified)	17		0.00461 µM [falling, full curve, poor fit]
O=C(CN1C2CCCC1CC(NC(=O)C1CCCCC1)C2)NCc1ccc(F)cc1 (stereo unspecified)	-16.2	14.6 µM [falling, single point]	
Cc1cccc(Nc2nc(N3CCN(C)CC3)nc(N)c2[N+](=O)[O-])c1	15.8		
CC1=NOC(=O)/C1=C\c1ccccc1	-21.1	0.184 µM [falling, full curve]	
Cc1cc(C)cc(C(=O)NN2CCN(C)CC2)c1	74.2	29.1 µM [rising, single point]	29.1 µM [rising, single point]
COC(=O)C(C(=O)OC)C(C)C(C(=O)OC)C(=O)OC	-40.9	4.61 µM [falling, partial curve, poor fit]	29.1 µM [falling, partial curve, poor fit]

4 of these compounds, set out differently.
SMILES,cell number change [%],AC50 [1],AC50 [2]
O=C(O)Cc1ccc(-n2cccc2)cc1,2.12,,
CS(=O)(=O)N1CCN(c2ccccc2NC(=O)c2ccc3ccccc3c2)CC1,-25.2,"23.1 µM [falling, single point]",
O=c1c2ccc(Cl)cc2[nH]c(=S)n1Cc1cccnc1,33.5,,
COc1cc(NC(C)=O)c2ncccc2c1[N+](=O)[O-],23.2,"8.2 µM [rising, partial curve]",
